Experimental findings from patent US9193777B2 (Mayo Foundation for Medical Education and Research, priority 2009, dated 2015) are described below.

The series can be described thus: Radioimmunoassay of plasma natriuretic peptides in family members. Details: species or system human. Conditions: plasma of family members heterozygous for the NPPA mutation, endogenous peptide.

Consider “mANP: Full-length 40-amino acid mutant ANP: normal 28-amino acid mature peptide plus an anomalous carboxyl-terminus of 12 residues (SLRRSSCFGGRMDRIGAQSGLGCNSFRYRITAREDKQGWA; listed as Homo sapiens)”, for which the “plasma concentration of mutant peptide relative to wild-type ANP” value is 5-10 fold. Besides, the “plasma concentration of mutant peptide relative to wild-type ANP” value (listed as mutant peptide) is reported as 5- to 10 fold.
